Laboratory results: PubChem BioAssay AID493014 (National Center for Advancing Translational Sciences (NCATS), 2011)
Some of the results follow. The main result of the screen is listed elsewhere. These columns were measured beside it and carry no call. The list favours compounds with an active or inconclusive main result. The note in brackets gives the kind of curve behind each potency; many fits are weak.

Experiment: qHTS Assay to Find Inhibitors of Chronic Active B-Cell Receptor Signaling
Details: ABC-DLBCL IkBa-CBG/CBR reporter, luminescence ratio (green luciferase fused to IkBa over red control in TMD8 lymphoma cells), 4 h
Procedure, shortened: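 TMD8 human ABC-DLBCL cells with doxycycline-inducible IκBα–green luciferase fusion and unfused red luciferase, in 0.5% FBS medium; compounds up to 46 uM, 4 h at 37C. Green/red luminescence ratio, filter-overlap corrected, fitted to concentration-response curves.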

[1] = measured here: CBR red luminescence, cell number
[2] = measured here: IkBa-CBG green luminescence

| SMILES | AC50 [1] | AC50 [2] |
| --- | --- | --- |
| O=C(CSc1cn[nH]n1)Nc1ccccc1C(=O)O | 11.2 µM [falling, partial curve] | – |
| Cc1ccc(S(=O)(=O)Nc2cccc(C(=O)Nc3cc(C)ccn3)c2)cc1 | 20.6 µM [falling, single point] | – |
| CCOC(=O)C1C(=O)C(C(C)=O)C(=O)CC1CC(C)SCC (configuration not stated) | 7.31 µM [falling, single point] | – |
| O=C(NC(NC(=S)Nc1c(Cl)cccc1Cl)C(Cl)(Cl)Cl)c1cccc([N+](=O)[O-])c1 (configuration not stated) | 29.1 µM [falling, single point] | 20.6 µM [rising, partial curve, poor fit] |
| Cc1cc(=O)oc(C)c1C(=O)Nc1ccc2ncccc2c1 | 25.9 µM [rising, single point] | – |
| COc1ccccc1NC(=O)COc1ccc(C(=O)OCC(=O)N(C(C)C)C(C)C)cc1OC | 0.461 µM [rising, full curve, poor fit] | – |
| C/C(=N\NC(=O)c1ccc(CN2CCOCC2)cc1)c1ccc(NC(=O)c2ccccc2)cc1 | 6.31 µM [falling, partial curve] | – |
| O=C(CCCc1c[nH]c2ccccc12)NCCc1c[nH]c2ccccc12 | 7.94 µM [falling, partial curve, poor fit] | – |
| O=C1CC(N2CCc3ccccc32)C(=O)N1c1ccccc1 (configuration not stated) | 10 µM [falling, partial curve, poor fit] | – |
| Cc1ccc(S(=O)(=O)NNC2=NCCCCC2)cc1 | 11.2 µM [falling, partial curve] | – |
| COc1ccc2c(c1)[nH]c1c(N3CCN(Cc4ccc5c(c4)OCO5)CC3)ncnc12 | 35.5 µM [falling, single point] | – |
| c1cncc(CSc2ccc(-c3ccc4c(c3)OCO4)nn2)c1 | 35.5 µM [falling, single point] | – |
| Cc1ccc2c(c1)N(CC(=O)N1CCN(c3nc4ccccc4s3)CC1)C(=O)C(C)O2 (configuration not stated) | 20.6 µM [falling, partial curve, poor fit] | – |
| Cc1ccnc(NC(=O)c2ccc(Br)s2)c1 | 12.6 µM [falling, single point] | – |
| COc1cccc(C(=O)NCCN2CCN(c3ccccc3)CC2)c1 | 11.2 µM [rising, single point] | – |
| COC(=O)Nc1c(-c2ccccc2)nc2ccc(Cl)cn12 | 11.2 µM [falling, partial curve] | – |
| Cc1csc(C(C#N)C(=O)c2cc3ccccc3o2)n1 (configuration not stated) | 2 µM [falling, partial curve, poor fit] | – |
| COC(=O)c1cc(NC(=O)CN(c2cccc(OC)c2)S(=O)(=O)c2ccccc2)ccc1Cl | 20.6 µM [falling, partial curve, poor fit] | 20.6 µM [rising, single point] |
| CCOC(=O)N(CC)OC(=O)Nc1ccc(Cl)cc1 | 0.291 µM [rising, partial curve, poor fit] | – |
| Nc1ccc(OCc2ccco2)cc1 | 6.31 µM [rising, partial curve, poor fit] | – |
| CCOC(=O)C1CCN(C(=O)c2cc3c(ccc4ccccc43)o2)CC1 | 4.47 µM [falling, partial curve, poor fit] | – |
| O=C(NCCc1c[nH]c2ccccc12)C(=O)Nc1ccccc1 | 11.2 µM [falling, partial curve] | – |

| SMILES | AC50 [1] | AC50 [2] |
| --- | --- | --- |
| COc1ccccc1C(C)NC(=O)Cc1ccsc1 (configuration not stated) | 31.6 µM [rising, single point] | – |
| COc1ccc(C)cc1NC(=O)CCCN1C(=O)NC(C)(C)C1=O | 29.1 µM [rising, single point] | – |
| N#Cc1ccc(-c2ccc(OCC(O)CN3CCOCC3)cc2)cc1 (configuration not stated) | 3.55 µM [rising, full curve, poor fit] | – |
| CCc1cc(=O)oc2c(CN3CCCC3)c(O)c(Cl)cc12 | 29.1 µM [falling, single point] | – |
| N#C/C(=C\c1cn(Cc2cccc(F)c2)c2ccccc12)C(=O)NCc1ccco1 | 29.1 µM [rising, single point] | – |
| CN(C)c1cc2c(cc1NC(=O)c1ccccc1Cl)n(C)c(=O)n2C | 0.316 µM [rising, full curve, poor fit] | – |
| Cc1nc2nc(-c3ccccc3)[nH]n2c(=O)c1Cc1ccccc1 | 3.26 µM [falling, full curve, poor fit] | – |
| O=C(c1ccccc1[N+](=O)[O-])N1N=C(c2ccccc2)CC1(O)C(F)(F)F (configuration not stated) | 17.8 µM [falling, single point] | – |
| Fc1cccc(NC(=S)NNc2c3ccccc3nc3ccccc23)c1 | 14.1 µM [falling, partial curve, poor fit] | 35.5 µM [rising, partial curve, poor fit] |
| O=C(/C=C/Nc1ccc(Br)cc1F)c1ccccc1 | 3.26 µM [falling, full curve] | – |
| Cc1cc(Oc2ccc(C#N)cc2)nc(NCc2ccccc2)n1 | 0.794 µM [rising, full curve, poor fit] | – |
| COc1ccc(N2CCN(C(=O)COC(=O)c3ccccc3OCc3ccc(F)cc3)CC2)cc1 | 5.8 µM [rising, single point] | – |
| O=C(Nc1ccc(F)cc1F)N1CCC(c2nc3ccccc3o2)CC1 | 3.16 µM [rising, partial curve, poor fit] | – |
| COc1cc(C(=O)NCC(c2cccs2)N2CCOCC2)cc(Br)c1OCc1ccccc1 (configuration not stated) | 23.1 µM [falling, single point] | – |
| CCN(CC)c1ccc2oc(=O)c(C)nc2c1 | 16.4 µM [falling, single point] | – |
| O=C1NC(=Nc2cccnc2)S/C1=C\c1cccc(F)c1 | 35.5 µM [falling, single point] | – |
| COc1ccc(-c2nc3ccccc3nc2-c2ccc(OC)c(OC)c2)cc1OC | 1.12 µM [rising, full curve, poor fit] | – |
| COCCNC(=O)c1ccccc1NS(=O)(=O)c1ccc(Br)s1 | 0.58 µM [falling, full curve, poor fit] | – |
| CCCn1nc(C(=O)N2CCN(c3ccccn3)CC2)c2ccccc2c1=O | 6.51 µM [rising, single point] | – |
| Nc1nc2ccc(Oc3ccccc3)cc2s1 | 0.461 µM [rising, full curve, poor fit] | – |
| Cc1ccnc(NC(=O)C2CCC(CNc3c(N4CCCC4)c(=O)c3=O)CC2)c1 (configuration not stated) | 29.1 µM [falling, single point] | – |
| COc1ccc(/C=C2\SC(=S)N(CC(=O)N(C)C3CCS(=O)(=O)C3)C2=O)cc1 (configuration not stated) | 15.8 µM [falling, single point] | – |

| SMILES | AC50 [1] | AC50 [2] |
| --- | --- | --- |
| Cc1ccc(NC(=O)CNC(=O)c2cccs2)cc1S(=O)(=O)Nc1ccc(Cl)cc1 | 2.06 µM [rising, single point] | – |
| COc1ccccc1C(=O)CSc1cccc[n+]1[O-] | 35.5 µM [falling, single point] | – |
| CC(C)(C)OC(=O)C1C(=O)CC(C)(O)C(C(=O)OC(C)(C)C)C1c1cccnc1 (configuration not stated) | 29.1 µM [falling, partial curve, poor fit] | – |
| CCOC(=O)c1oc2cccc(OCC(O)CNC(C)C)c2c1C (configuration not stated) | 18.4 µM [falling, partial curve] | – |
| Cc1ccc(Cn2ccc(NC(=O)c3cc(-c4ccccc4)on3)n2)cc1 | 2.31 µM [falling, full curve] | – |
| COc1ccc(-c2coc3c(CN4CCOCC4)c(O)ccc3c2=O)cc1 | 35.5 µM [rising, single point] | – |
| N#Cc1c(SCc2ccc(Cl)cc2)sc(C(=O)c2ccccc2)c1N | 10 µM [rising, partial curve, poor fit] | – |
| CCN1C(N(C)CCc2c[nH]c3ccccc23)=N[C@@H](c2cccc(C(F)(F)F)c2)C(C(=O)OC)=C1C | 29.1 µM [falling, single point] | – |
| Cn1nc(C(=O)Nc2nc3ccccc3[nH]2)c2ccccc2c1=O | 2.91 µM [falling, full curve] | – |
| O=C(Nc1cccc(S(=O)(=O)N2CCOCC2)c1)c1ccc(Cl)nc1 | 25.9 µM [falling, single point] | – |
| COc1cccc(C(=O)COc2cccc(NC(=O)c3ccco3)c2)c1 | 8.91 µM [falling, partial curve, poor fit] | – |
| O=C(N/N=C/c1ccc(-c2cccc([N+](=O)[O-])c2)o1)c1ccc([N+](=O)[O-])cc1 | 12.6 µM [rising, partial curve, poor fit] | – |
| CC(C)/C=N/NC(=O)c1cccc(N2CCCC2=O)c1 | 29.1 µM [falling, single point] | – |
| CC(C)CNC(=S)N(CCN(C)C)Cc1cc2cc3c(cc2[nH]c1=O)OCCO3 | 17.8 µM [falling, single point] | – |
| O=C1[C@@H]2Cc3c([nH]c4ccccc34)CN2C(=O)CN1CCO | 15.8 µM [rising, single point] | – |
| Cc1nnc(NCc2cccc(Cl)c2)c2ccccc12 | 22.4 µM [falling, single point] | – |
| CN(C)CCCN(C(=O)COc1ccccc1)c1nc2cc3c(cc2s1)OCCO3 | 1 µM [falling, full curve, poor fit] | – |
| O=c1[nH]n(CC2COC3(CCCCC3)O2)c(=O)c2ccccc12 (configuration not stated) | 0.794 µM [rising, full curve, poor fit] | – |
| COc1ccc(-c2nc3c4ccccc4ccn3c2C=O)cc1 | 0.282 µM [rising, full curve, poor fit] | – |
| O=c1c2ccccc2nc(-c2ccco2)n1/N=C/c1ccco1 | 7.08 µM [falling, partial curve] | – |

No new results follow: 19 of the compounds above.

| SMILES | AC50 [1] | AC50 [2] |
| --- | --- | --- |
| COc1ccccc1C(=O)CSc1cccc[n+]1[O-] | 35.5 µM [falling, single point] | – |
| CC(C)(C)OC(=O)C1C(=O)CC(C)(O)C(C(=O)OC(C)(C)C)C1c1cccnc1 (configuration not stated) | 29.1 µM [falling, partial curve, poor fit] | – |
| CCOC(=O)c1oc2cccc(OCC(O)CNC(C)C)c2c1C (configuration not stated) | 18.4 µM [falling, partial curve] | – |
| Cc1ccc(Cn2ccc(NC(=O)c3cc(-c4ccccc4)on3)n2)cc1 | 2.31 µM [falling, full curve] | – |
| COc1ccc(-c2coc3c(CN4CCOCC4)c(O)ccc3c2=O)cc1 | 35.5 µM [rising, single point] | – |
| N#Cc1c(SCc2ccc(Cl)cc2)sc(C(=O)c2ccccc2)c1N | 10 µM [rising, partial curve, poor fit] | – |
| CCN1C(N(C)CCc2c[nH]c3ccccc23)=N[C@@H](c2cccc(C(F)(F)F)c2)C(C(=O)OC)=C1C | 29.1 µM [falling, single point] | – |
| Cn1nc(C(=O)Nc2nc3ccccc3[nH]2)c2ccccc2c1=O | 2.91 µM [falling, full curve] | – |
| O=C(Nc1cccc(S(=O)(=O)N2CCOCC2)c1)c1ccc(Cl)nc1 | 25.9 µM [falling, single point] | – |
| COc1cccc(C(=O)COc2cccc(NC(=O)c3ccco3)c2)c1 | 8.91 µM [falling, partial curve, poor fit] | – |
| O=C(N/N=C/c1ccc(-c2cccc([N+](=O)[O-])c2)o1)c1ccc([N+](=O)[O-])cc1 | 12.6 µM [rising, partial curve, poor fit] | – |
| CC(C)/C=N/NC(=O)c1cccc(N2CCCC2=O)c1 | 29.1 µM [falling, single point] | – |
| CC(C)CNC(=S)N(CCN(C)C)Cc1cc2cc3c(cc2[nH]c1=O)OCCO3 | 17.8 µM [falling, single point] | – |
| O=C1[C@@H]2Cc3c([nH]c4ccccc34)CN2C(=O)CN1CCO | 15.8 µM [rising, single point] | – |
| Cc1nnc(NCc2cccc(Cl)c2)c2ccccc12 | 22.4 µM [falling, single point] | – |
| CN(C)CCCN(C(=O)COc1ccccc1)c1nc2cc3c(cc2s1)OCCO3 | 1 µM [falling, full curve, poor fit] | – |
| O=c1[nH]n(CC2COC3(CCCCC3)O2)c(=O)c2ccccc12 (configuration not stated) | 0.794 µM [rising, full curve, poor fit] | – |
| COc1ccc(-c2nc3c4ccccc4ccn3c2C=O)cc1 | 0.282 µM [rising, full curve, poor fit] | – |
| O=c1c2ccccc2nc(-c2ccco2)n1/N=C/c1ccco1 | 7.08 µM [falling, partial curve] | – |
